The other results are listed elsewhere or left out. The main result of the screen is listed elsewhere. These columns were measured beside it and carry no call. Compounds called inactive in the main read-out are mostly missing here. The note in brackets gives the kind of curve behind each potency; many fits are weak.
Experiment: qHTS Assay for Lipid Storage Modulators in Drosophila S3 Cells;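 as to cell number change: cells counted by Cell Tracker Red CMTPX staining in the red channel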
Conditions: BODIPY lipid droplet fluorescence, 18-24 h; for cell number change: measured here: cell count max response, cells fed with added oleic acid
Procedure, shortened: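 Drosophila S3 cells loaded with oleic acid (400 uM, as added) and compounds at several concentrations; lipid droplets imaged by 488-nm laser-scanning cytometry, 500–530 nm intensity and object ratio to cell channel. Percent activity normalized to 20 uM Triacsin C.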

[1] = measured here: lipid fluorescence (Fed channel) AC50, cells fed with added oleic acid
[2] = measured here: cell number channel AC50, cells fed with added oleic acid

Structure (SMILES) | cell number change | AC50 [1] | AC50 [2]
CCOC(=O)c1ccccc1N/C=C/C(=O)c1cccs1 | -5.76% | 9.2 µM [falling, partial curve, poor fit] | 
CN(CC(=O)Nc1ccccc1C(=O)NC1CC1)Cc1ccc(Cl)s1 | -16.1% | 14.6 µM [falling, single point] | 
Cc1c(Cl)c([N+](=O)[O-])nn1CCCC(=O)N(Cc1ccccc1)Cc1ccccc1 | 10% |  | 
CSCCC(NS(=O)(=O)c1ccccc1)C(=O)Nc1nccs1 (configuration not stated) | -1.81% | 0.517 µM [rising, full curve] | 
COC(=O)c1cc(OC(=O)c2ccc(=O)[nH]c2)cc(C(=O)OC)c1 | 15.4% |  | 
CCCCn1c(=N)c(S(=O)(=O)c2ccc(Br)cc2)cc2c(=O)n3cccc(C)c3nc21 | 16.4% | 2.91 µM [rising, single point] | 6.51 µM [rising, single point]
CCC(=O)NCCCNc1nc2c(C)cccc2cc1C#N | 53.6% |  | 16.4 µM [rising, partial curve]
Cc1cccc(C)c1OCc1cc(C(=O)N2CCN(Cc3nccn3C)CC2)no1 | 18.7% | 10.3 µM [rising, partial curve] | 
Cc1ccc(C(=O)NCC(c2ccco2)N2CCc3ccccc32)cc1C (configuration not stated) |  | 6.51 µM [rising, single point] | 6.51 µM [rising, single point]
COc1cccc(/C=C(/C(=O)OCC(=O)NCC2CCCO2)c2ccccc2)c1 (configuration not stated) | 17.4% |  | 
C=CCSc1nnc(NC(=O)Cn2cnc3c2c(=O)n(C)c(=O)n3C)s1 |  | 0.651 µM [falling, partial curve, poor fit] | 
N#Cc1ccc(NC(=O)Cn2cnc([N+](=O)[O-])c2)cc1 | -10.1% | 6.51 µM [rising, single point] | 
O=C(Oc1ccc(-c2nnco2)cc1)c1ccco1 | -21.8% | 25.9 µM [rising, single point] | 
CCCc1cc(N2CCCC(C(=O)NCc3ccc4c(c3)OCO4)C2)n2ncnc2n1 (configuration not stated) | 11.5% | 0.092 µM [rising, full curve, poor fit] | 
Cc1cccc(C(=O)NNS(=O)(=O)c2ccc(F)cc2)c1O | 12.9% | 8.2 µM [rising, partial curve] | 
CCC(C)(C)NC(=O)C1CC(=O)N(CCc2ccc(F)cc2)C1 (configuration not stated) |  | 29.1 µM [falling, single point] | 
CN1CCN(S(=O)(=O)c2ccc(NC(=O)c3cccs3)cc2)CC1 |  | 0.13 µM [falling, full curve, poor fit] | 0.164 µM [falling, partial curve, poor fit]
CCN1C(=O)[C@H]2[C@@H](c3ccc(-c4ccc(OC)cc4)cc3)N3CCC[C@@]3(C(=O)OC)[C@H]2C1=O | -10.5% | 0.0731 µM [rising, full curve, poor fit] | 
C=CCNC(=S)NNc1nc2c(c(=O)[nH]1)C1(CCCCC1)Cc1ccccc1-2 | -45.5% |  | 14.6 µM [falling, single point]
Cc1[nH]c2ccccc2c1N=Nc1cc(C(=O)O)cc(C(=O)O)c1 | 10.5% |  | 0.517 µM [falling, full curve]

Reformatted as labelled records: part of the list above.
O=C(Oc1ccc(-c2nnco2)cc1)c1ccco1
  cell number change: -21.8%
  AC50 [1]: 25.9 µM [rising, single point]
CCCc1cc(N2CCCC(C(=O)NCc3ccc4c(c3)OCO4)C2)n2ncnc2n1 (configuration not stated)
  cell number change: 11.5%
  AC50 [1]: 0.092 µM [rising, full curve, poor fit]
Cc1cccc(C(=O)NNS(=O)(=O)c2ccc(F)cc2)c1O
  cell number change: 12.9%
  AC50 [1]: 8.2 µM [rising, partial curve]
CCC(C)(C)NC(=O)C1CC(=O)N(CCc2ccc(F)cc2)C1 (configuration not stated)
  AC50 [1]: 29.1 µM [falling, single point]

(list continues)

Structure (SMILES) | cell number change | AC50 [1] | AC50 [2]
COc1ccc(CN(C)C(=O)c2cccc(NS(=O)(=O)c3ccccc3)c2)cc1F | -32.4% | 6.51 µM [falling, single point] | 29.1 µM [falling, single point]
COc1ccc(CNCC(O)(c2ccccc2)c2ccc(Cl)cc2)cc1 (configuration not stated) | -135% | 6.51 µM [rising, partial curve, poor fit] | 18.4 µM [falling, single point]
CCCN(CC(=O)Nc1ccccc1C)C(=O)C1CC(=O)N(c2ccc(CC)cc2)C1 (configuration not stated) | 4.51% | 23.1 µM [falling, partial curve, poor fit] | 
C/C(=N/NC(=O)c1ccoc1C)c1cccc(NC(=O)C2CC2)c1 | -5.39% | 0.164 µM [rising, full curve, poor fit] | 
Cc1ccc(NNC(=S)Nc2ccc(C(C)C)cc2)c(C)c1 | -12.2% |  | 
Nc1nc(=S)c2ncn(C3OC(CO)C(O)C3O)c2[nH]1 (configuration not stated) | -5.56% | 29.1 µM [rising, single point] | 
Cc1cccc(OC(C)C(=O)Nc2ccccc2C(=O)N2CCCCC2)c1 (configuration not stated) | -2.44% | 6.51 µM [rising, single point] | 
Cc1nnc(SCC2=C(C(=O)O)N3C(=O)C(NC(=O)COc4ccccc4)C3SC2)s1 (configuration not stated) | 11% | 0.291 µM [rising, full curve, poor fit] | 
CN(/N=C/c1cccnc1)c1cnc2ccccc2n1 | -66.9% |  | 
CCOc1ccc(Oc2ccc(S(=O)(=O)N3CCOCC3)cc2NC(=O)C2=COCCO2)cc1 |  |  | 3.66 µM [rising, single point]
O=C(COC(=O)Cc1ccccc1F)Nc1ccc(F)cc1F | -17% | 22.4 µM [falling, single point] | 
O=C(Nc1nccs1)c1cc(-c2ccccc2)nc2ccccc12 | -4.15% | 1.64 µM [rising, partial curve] | 
O=C(Cc1ccccc1)NN1CCCCC1 | -1.8% | 29.1 µM [rising, partial curve] | 
Cc1cc(N2CCCC2)nc2ccccc12 | -41.5% | 10.3 µM [falling, partial curve] | 11.6 µM [falling, partial curve, poor fit]
Cn1cccc1-c1nc2ccccc2n1C | -16.7% | 3.66 µM [falling, full curve, poor fit] | 
CCOc1ccccc1C1c2[nH]c3ccccc3c2C[C@H]2C(=O)N(C3CCN(Cc4ccccc4)CC3)CC(=O)N12 (some centres not stated) | 137% | 0.651 µM [rising, single point] | 
COc1cccc(CN2CCN(C(=O)CC(C)C)CC2)c1 | 13% |  | 
CCn1cc(CN2CCC(C(=O)Nc3ccc(Oc4ccccc4F)cc3)CC2)c(C)n1 | 2.09% |  | 
O=c1c2cc(Cl)ccc2oc2nc3n(c(=O)c12)CCCS3 |  | 0.82 µM [rising, full curve] | 1.3 µM [rising, full curve]
CC(C)(C)c1ccc(-c2nn(CCC#N)cc2/C=N/O)cc1 | 17.9% | 0.00517 µM [rising, full curve, poor fit] | 

Structure (SMILES) | cell number change | AC50 [1] | AC50 [2]
O=C(Nc1ccc(Cl)cc1)OCc1cn(-c2ccccc2)nn1 | 107% | 18.4 µM [rising, single point] | 25.9 µM [rising, single point]
CCOC(=O)C1CCCN(C(=O)c2cccc(NC(=O)C(CC)CC)c2)C1 (configuration not stated) | 120% |  | 
COc1ccccc1-n1nnnc1SCc1cc2c(cc1Br)OCO2 | -23.1% |  | 
CCc1ccc(NC(=O)c2ccc(S(=O)(=O)NCc3cccnc3)cc2)cc1 | 0.952% |  | 0.00461 µM [rising, full curve, poor fit]
CN1CCN(C(=O)/C=C\C(=O)O)CC1 | -62.7% | 5.17 µM [falling, single point] | 18.4 µM [falling, single point]
CCC(CC)C(=O)Nc1cccc(/C(C)=N\NC(=O)c2ccc(C)s2)c1 |  |  | 0.517 µM [rising, full curve, poor fit]
COc1ccc([C@]2(C(C)C)ON(c3ccccc3C(F)(F)F)C2=O)cc1 | -41% |  | 7.31 µM [falling, single point]
CCOc1ncccc1C(=O)Nc1ccc(Cl)c(S(=O)(=O)N2CCCC2)c1 | 3.65% |  | 
Cc1cccc(C(C(=O)NC2CCCCC2)N(Cc2cccnc2)C(=O)c2csnn2)c1 (configuration not stated) | 18.1% |  | 
C[C@@H](C(=O)N[C@H](C(=O)O)c1ccccc1)n1nnc2ccccc2c1=O | 33.5% | 2.91 µM [rising, partial curve, poor fit] | 2.31 µM [rising, full curve]
CCOC(=O)N1CCN(C(=O)c2ccc(CNS(=O)(=O)c3ccc(NC(C)=O)cc3)cc2)CC1 |  | 0.116 µM [falling, single point] | 
CCCCCCN1N=C(C)C(C(=O)c2ccc(Cl)cc2)C1=O (configuration not stated) | -1.81% |  | 
CC(C)OCCCn1c(SCC(=O)N2CCCC2=O)nc2ccccc2c1=O | 52.4% | 4.11 µM [rising, partial curve] | 4.61 µM [rising, full curve]
O=[N+]([O-])c1ccccc1S(=O)(=O)Nc1cccc(-c2ccc(N3CCCC3)nn2)c1 | 33.9% | 11.6 µM [rising, partial curve, poor fit] | 9.2 µM [rising, partial curve, poor fit]
CC(C)C[C@H](NC(=O)c1[nH]cnc1C(=O)N[C@@H](C)c1ccccc1)C(=O)OC(C)(C)C | -15.6% | 10.3 µM [falling, partial curve] | 
COc1cc(SC#N)ccc1N=Cc1c(C)[nH]n(-c2ccc(Cl)cc2)c1=O | -50.9% | 13 µM [falling, partial curve] | 7.31 µM [falling, partial curve]
COc1ccc(CCNC(=O)c2cc(C3CC3)nc3c2cnn3C(C)C)cc1 | -11% | 18.4 µM [falling, single point] | 
C/C(CCC1CC(C)OC1=O)=N\NC(N)=S (configuration not stated) | 14.2% | 4.61 µM [rising, single point] | 
CCc1ccccc1NC(=O)CN(C)C(=O)Cn1cc(C(F)(F)F)cc(Cl)c1=O | 46.2% | 20.6 µM [rising, single point] | 18.4 µM [rising, single point]
